Laboratory results: PubChem BioAssay AID1259405 (NCATS, 2018)
The deposit covers about 50,000 reagents; this is a random part of them. About 4,000 of them (8%) count as active. 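Mouse siRNA library applied to hamster cells; one well for each siRNA.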 The numbers tell different reagents against one gene apart.

Screen: 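Mouse-designed siRNAs used to find CHO productivity engineering targets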 (primary screen)
System: Chinese hamster CHO-K1 ovary cells with stable secreted eGFP expression
Reagent: single siRNA against mouse genes, 0.8 pmol siRNA per well (2 µl of 400 nM stock)
Duration: 3 days
Detection: 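Per-well intracellular GFP measured by laser scanning cytometry, plus viability from ATP luminescence, each relative to plate median of non-targeting control wells, in %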
Direction: GFP, % of control: higher = more GFP per well, higher productivity; viability (ATP), % of control: higher = more viable cells (more ATP)
Active means: 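Called active when intracellular GFP, relative to negative control, is at or above 120%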

Phf8 #1: GFP, % of control = 57.4; viability (ATP), % of control = 59.1; activity call = inactive
Phf8 #2: GFP, % of control = 58.5; viability (ATP), % of control = 67.9; activity call = inactive
Phf8 #3: GFP, % of control = 69.9; viability (ATP), % of control = 143; activity call = inactive
Dpep1 #1: GFP, % of control = 61.9; viability (ATP), % of control = 72.7; activity call = inactive
Dpep1 #2: GFP, % of control = 77; viability (ATP), % of control = 71; activity call = inactive
Dpep1 #3: GFP, % of control = 29.1; viability (ATP), % of control = 60; activity call = inactive
Slc25a22 #1: GFP, % of control = 131; viability (ATP), % of control = 98.6; activity call = active
Slc25a22 #2: GFP, % of control = 113; viability (ATP), % of control = 105; activity call = inactive
Slc25a22 #3: GFP, % of control = 55.1; viability (ATP), % of control = 57.4; activity call = inactive

Next part (2 carried over from the part before).
Slc25a22 #2: GFP, % of control = 113; viability (ATP), % of control = 105; activity call = inactive
Slc25a22 #3: GFP, % of control = 55.1; viability (ATP), % of control = 57.4; activity call = inactive
Calcb #1: GFP, % of control = 66.8; viability (ATP), % of control = 79; activity call = inactive
Calcb #2: GFP, % of control = 87.9; viability (ATP), % of control = 71.9; activity call = inactive
Slc35f5 #1: GFP, % of control = 75.1; viability (ATP), % of control = 84.5; activity call = inactive
Slc35f5 #2: GFP, % of control = 106; viability (ATP), % of control = 80.9; activity call = inactive
Slc35f5 #3: GFP, % of control = 95; viability (ATP), % of control = 78.8; activity call = inactive
Wdr18 #1: GFP, % of control = 69.4; viability (ATP), % of control = 53.8; activity call = inactive
Wdr18 #2: GFP, % of control = 158; viability (ATP), % of control = 62.6; activity call = active
Wdr18 #3: GFP, % of control = 79.8; viability (ATP), % of control = 75.9; activity call = inactive
